{
  "source": "the supplement of paper PMC8256030",
  "note": "Several values for one entry are separate records, joined by “and”; a condition that tells them apart may be missing. Equal values may be shown once. The list shows a part of the results. Single values are uncertain here, since repeats match poorly.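 HEK293T cells were given each compound shortly before transfection with a reporter in which red mCherry is followed by the SARS-CoV-2 frameshift element and then GFP in the −1 frame, so GFP appears only after frameshifting.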",
  "data": [
    {"tested_on": "SARS-CoV-2 -1 PRF reporter mCherry-FSE-GFP(-1)", "assay": "percent effect, decrease of GFP/mCherry ratio (-1 PRF reporter) relative to controls; higher = stronger frameshift inhibition", "conditions": "10 µM; 24 h; HEK293T", "values": [
      {"smiles": "Cc1oncc1C(=O)Nc1ccc(C(F)(F)F)cc1", "note": "[leflunomide]", "percent effect": "0.451% and -6.62%"},
      {"smiles": "OC[C@@H](O)[C@@H](O[C@@H]1O[C@H](CO)[C@H](O)[C@H](O)[C@H]1O)[C@H](O)[C@@H](O)CO", "percent effect": "-2.56% and -0.352%"},
      {"smiles": "CC(C)OC(=O)CCC/C=C\\C[C@@H]1[C@@H](/C=C/[C@@H](O)COc2cccc(C(F)(F)F)c2)[C@H](O)C[C@@H]1O", "note": "[travoprost]", "percent effect": "-2.91% and -11.3%"},
      {"smiles": "CCOC(=O)C1=C(C)NC(C)=C(C(=O)OC)C1c1cccc(Cl)c1Cl", "note": "(centres undefined) [felodipine]", "percent effect": "-1.46% and 1.57%"},
      {"smiles": "CC1(C)O[C@@H]2C[C@H]3[C@@H]4C[C@H](F)C5=CC(=O)C=C[C@]5(C)[C@@]4(F)[C@@H](O)C[C@]3(C)[C@]2(C(=O)CO)O1", "note": "[fluocinolone acetonide]", "percent effect": "-5.49% and -1.32%"},
      {"smiles": "CCCOc1ccc2[nH]c(NC(=O)OC)nc2c1", "note": "[oxibendazole]", "percent effect": "-10% and -7.44%"},
      {"smiles": "C[C@@H]1O[C@@H]1P(=O)(O)O", "note": "[fosfomycin]", "percent effect": "-1.43% and -3.25% and -1.5%"},
      {"smiles": "CCOC(=O)[C@H](CCc1ccccc1)N[C@@H](C)C(=O)N1Cc2ccccc2C[C@H]1C(=O)O", "note": "[quinapril]", "percent effect": "2.84% and -7.36%"},
      {"smiles": "C[C@@H](O)[C@@H]1NC(=O)[C@H](CCCCN)NC(=O)[C@@H](Cc2c[nH]c3ccccc23)NC(=O)[C@H](Cc2ccccc2)NC(=O)[C@@H](NC(=O)[C@H](N)Cc2ccccc2)CSSC[C@@H](C(=O)N[C@H](CO)[C@@H](C)O)NC1=O", "note": "[Octreotide]", "percent effect": "-2.24% and -4.19%"},
      {"smiles": "CC1CCc2c(N3CCC(O)CC3)c(F)cc3c(=O)c(C(=O)O)cn1c23", "note": "(centres undefined) [nadifloxacin]", "percent effect": "-3.94% and -3.19%"},
      {"smiles": "Nc1ccc(O)c(C(=O)O)c1", "note": "[mesalazine]", "percent effect": "-4.68% and 0.743%"},
      {"smiles": "CN(C)CCCN1c2ccccc2Sc2ccc(Cl)cc21", "note": "[chlorpromazine]", "percent effect": "-0.768% and -0.815%"},
      {"smiles": "CCCCOc1ccc(C(=O)CCN2CCCCC2)cc1", "percent effect": "-3.44% and -9.99%"},
      {"smiles": "Nc1ccn([C@@H]2O[C@H](CO)[C@@H](O)[C@@H]2O)c(=O)n1", "note": "[cytarabine]", "percent effect": "-2.56% and -12.1%"},
      {"smiles": "O=C1CCC(N2C(=O)c3ccccc3C2=O)C(=O)N1", "note": "(centres undefined) [thalidomide]", "percent effect": "-0.0436% and 0.752%"},
      {"smiles": "CC(C)NCC(O)COc1ccc(CC(N)=O)cc1", "note": "(centres undefined) [atenolol]", "percent effect": "2.87% and -10.2%"},
      {"smiles": "CC(C(=O)O)c1cccc(Oc2ccccc2)c1", "note": "(centres undefined) [fenoprofen]", "percent effect": "0.835% and -11.7%"},
      {"smiles": "Nc1ccn([C@H]2CC[C@@H](CO)O2)c(=O)n1", "note": "[zalcitabine]", "percent effect": "-1.73% and -26.1%"},
      {"smiles": "CNCCCC12CCC(c3ccccc31)c1ccccc12", "note": "[maprotiline]", "percent effect": "1.57% and -8.44%"},
      {"smiles": "CCn1cc(C(=O)O)c(=O)c2cc(F)c(N3CCNCC3)nc21", "note": "[enoxacin]", "percent effect": "-4.46% and 4.23%"},
      {"smiles": "Clc1ccc(CO/N=C(\\Cn2ccnc2)c2ccc(Cl)cc2Cl)c(Cl)c1", "note": "[Oxiconazole]", "percent effect": "-0.804% and -9.62%"},
      {"smiles": "Clc1ccc2c(c1)CCc1cccnc1C2=C1CCNCC1", "note": "[desloratadine]", "percent effect": "-3.19% and -17.4%"},
      {"smiles": "CCOC(=O)[C@H](CCc1ccccc1)N[C@@H](C)C(=O)N1CCC[C@H]1C(=O)O", "note": "[enalapril]", "percent effect": "2.22% and -0.541%"},
      {"smiles": "COc1ccccc1OCC(O)CO", "note": "(centres undefined) [guaifenesin]", "percent effect": "-10.4% and -8.06%"},
      {"smiles": "O=c1[nH]c(=O)n([C@H]2C[C@H](O)[C@@H](CO)O2)cc1I", "note": "[idoxuridine]", "percent effect": "-2.5% and -6.71%"},
      {"smiles": "CN(C/C=C/C#CC(C)(C)C)Cc1cccc2ccccc12", "note": "[terbinafine]", "percent effect": "1.86% and -1.25% and -0.00367%"},
      {"smiles": "Fc1ccc([C@@H]2CCNC[C@H]2COc2ccc3c(c2)OCO3)cc1", "note": "[paroxetine]", "percent effect": "-0.587% and 6.3%"},
      {"smiles": "COc1cc(Cc2cnc(N)nc2N)cc(OC)c1OC", "note": "[trimethoprim]", "percent effect": "-6.91% and -4.95%"},
      {"smiles": "COC(=O)C1=C(C)NC(C)=C(C(=O)OCCN(C)Cc2ccccc2)C1c1cccc([N+](=O)[O-])c1", "note": "(centres undefined) [nicardipine]", "percent effect": "2.31% and 1.48%"},
      {"smiles": "N=c1ccn2c(n1)O[C@H]1[C@H](O)[C@@H](CO)O[C@H]12", "note": "[ancitabine]", "percent effect": "0.311% and -1.96%"},
      {"smiles": "COc1c(C)c2c(c(O)c1C/C=C(\\C)CCC(=O)O)C(=O)OC2", "note": "[mycophenolic acid]", "percent effect": "-9.2% and -13.7%"},
      {"smiles": "CC(COc1ccccc1)NC(C)C(O)c1ccc(O)cc1", "note": "(centres undefined) [isoxsuprine]", "percent effect": "-1.58% and -14.8%"},
      {"smiles": "O=C(CCCN1CCN(c2ccccn2)CC1)c1ccc(F)cc1", "note": "[azaperone]", "percent effect": "1.32% and -6.99%"},
      {"smiles": "Clc1ccc(COC(Cn2ccnc2)c2ccc(Cl)cc2Cl)c(Cl)c1", "note": "(centres undefined) [miconazole]", "percent effect": "-8.18% and -7.68%"},
      {"smiles": "Cc1ccc(C(=O)c2ccc(CC(=O)O)n2C)cc1", "note": "[tolmetin]", "percent effect": "-1.37% and 0.949%"},
      {"smiles": "C=C1/C(=C\\C=C2/CCC[C@]3(C)[C@@H]([C@H](C)/C=C/[C@@H](O)C4CC4)CC[C@@H]23)C[C@@H](O)C[C@@H]1O", "note": "[calcipotriol]", "percent effect": "-8.03% and 0.422%"},
      {"smiles": "COC(=O)C1=C(C)NC(C)=C(C(=O)OCCN2CCN(C(c3ccccc3)c3ccccc3)CC2)C1c1cccc([N+](=O)[O-])c1", "note": "(centres undefined) [manidipine]", "percent effect": "1.42% and -1.84%"},
      {"smiles": "Cc1c(-c2cnccn2)ssc1=S", "note": "[oltipraz]", "percent effect": "4.27% and -6.1%"},
      {"smiles": "CC(C)Cn1cnc2c(N)nc3ccccc3c21", "note": "[imiquimod]", "percent effect": "-4.82% and 0.338%"}
    ]}
  ]
}
